Data: article PMC5725533

Sequences of proteins named here, by UniProt entry; tags and fusion partners are left off.
UniProt Q80TV8: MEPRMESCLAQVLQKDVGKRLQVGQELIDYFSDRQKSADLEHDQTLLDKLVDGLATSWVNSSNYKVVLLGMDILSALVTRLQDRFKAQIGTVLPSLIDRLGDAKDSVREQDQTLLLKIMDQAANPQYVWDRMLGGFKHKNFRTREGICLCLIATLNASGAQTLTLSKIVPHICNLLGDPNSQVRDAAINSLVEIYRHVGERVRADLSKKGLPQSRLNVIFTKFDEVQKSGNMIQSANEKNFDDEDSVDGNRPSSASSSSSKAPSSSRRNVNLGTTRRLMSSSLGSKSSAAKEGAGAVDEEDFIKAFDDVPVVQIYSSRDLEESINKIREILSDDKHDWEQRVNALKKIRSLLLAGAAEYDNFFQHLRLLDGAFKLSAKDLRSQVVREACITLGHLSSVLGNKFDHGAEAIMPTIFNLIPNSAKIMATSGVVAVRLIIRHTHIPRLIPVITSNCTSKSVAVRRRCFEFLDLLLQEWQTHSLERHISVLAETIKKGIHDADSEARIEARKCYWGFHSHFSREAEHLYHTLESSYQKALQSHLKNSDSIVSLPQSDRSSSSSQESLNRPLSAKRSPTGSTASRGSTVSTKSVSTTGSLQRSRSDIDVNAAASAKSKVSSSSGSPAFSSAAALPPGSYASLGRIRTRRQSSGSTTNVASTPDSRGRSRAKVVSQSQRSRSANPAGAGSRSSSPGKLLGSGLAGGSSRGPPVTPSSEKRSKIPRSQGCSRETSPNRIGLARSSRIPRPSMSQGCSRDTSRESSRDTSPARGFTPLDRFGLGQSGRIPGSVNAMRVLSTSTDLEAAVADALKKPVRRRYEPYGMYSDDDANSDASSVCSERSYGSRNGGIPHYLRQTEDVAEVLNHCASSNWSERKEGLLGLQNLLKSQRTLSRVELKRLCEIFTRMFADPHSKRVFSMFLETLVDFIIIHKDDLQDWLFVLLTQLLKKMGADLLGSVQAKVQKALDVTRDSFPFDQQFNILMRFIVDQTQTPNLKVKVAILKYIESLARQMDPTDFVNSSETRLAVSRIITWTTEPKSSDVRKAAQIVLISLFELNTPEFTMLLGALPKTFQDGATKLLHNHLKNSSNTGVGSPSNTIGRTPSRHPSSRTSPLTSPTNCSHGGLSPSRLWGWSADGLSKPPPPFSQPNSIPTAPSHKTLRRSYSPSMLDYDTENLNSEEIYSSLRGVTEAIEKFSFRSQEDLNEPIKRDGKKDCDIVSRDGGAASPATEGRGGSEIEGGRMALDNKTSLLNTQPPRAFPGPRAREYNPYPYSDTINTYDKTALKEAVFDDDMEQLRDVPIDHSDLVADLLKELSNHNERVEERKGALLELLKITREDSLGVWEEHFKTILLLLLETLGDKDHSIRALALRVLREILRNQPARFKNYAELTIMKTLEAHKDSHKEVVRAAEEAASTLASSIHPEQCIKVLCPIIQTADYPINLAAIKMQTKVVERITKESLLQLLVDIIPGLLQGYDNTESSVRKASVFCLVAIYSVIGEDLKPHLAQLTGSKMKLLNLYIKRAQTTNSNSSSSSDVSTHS
UniProt A2APB8: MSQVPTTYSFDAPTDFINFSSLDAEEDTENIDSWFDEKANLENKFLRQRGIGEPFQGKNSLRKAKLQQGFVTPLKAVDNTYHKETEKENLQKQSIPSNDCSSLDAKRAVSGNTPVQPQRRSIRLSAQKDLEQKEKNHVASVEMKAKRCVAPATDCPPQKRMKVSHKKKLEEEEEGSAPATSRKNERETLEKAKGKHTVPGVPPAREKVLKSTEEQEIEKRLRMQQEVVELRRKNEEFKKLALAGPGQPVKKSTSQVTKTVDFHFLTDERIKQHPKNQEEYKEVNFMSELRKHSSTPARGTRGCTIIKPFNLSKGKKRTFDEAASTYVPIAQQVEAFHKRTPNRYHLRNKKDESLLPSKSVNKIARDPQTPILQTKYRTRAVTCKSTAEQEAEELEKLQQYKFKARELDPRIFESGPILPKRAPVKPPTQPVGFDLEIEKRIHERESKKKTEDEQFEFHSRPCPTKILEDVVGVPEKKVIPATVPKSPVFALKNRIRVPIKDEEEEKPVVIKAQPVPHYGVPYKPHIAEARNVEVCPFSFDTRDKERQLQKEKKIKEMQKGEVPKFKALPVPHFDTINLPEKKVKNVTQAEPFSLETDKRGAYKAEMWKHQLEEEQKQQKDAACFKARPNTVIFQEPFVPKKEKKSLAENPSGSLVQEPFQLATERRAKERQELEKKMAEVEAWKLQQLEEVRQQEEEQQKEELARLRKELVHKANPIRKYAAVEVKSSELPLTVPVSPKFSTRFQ
UniProt Q07832: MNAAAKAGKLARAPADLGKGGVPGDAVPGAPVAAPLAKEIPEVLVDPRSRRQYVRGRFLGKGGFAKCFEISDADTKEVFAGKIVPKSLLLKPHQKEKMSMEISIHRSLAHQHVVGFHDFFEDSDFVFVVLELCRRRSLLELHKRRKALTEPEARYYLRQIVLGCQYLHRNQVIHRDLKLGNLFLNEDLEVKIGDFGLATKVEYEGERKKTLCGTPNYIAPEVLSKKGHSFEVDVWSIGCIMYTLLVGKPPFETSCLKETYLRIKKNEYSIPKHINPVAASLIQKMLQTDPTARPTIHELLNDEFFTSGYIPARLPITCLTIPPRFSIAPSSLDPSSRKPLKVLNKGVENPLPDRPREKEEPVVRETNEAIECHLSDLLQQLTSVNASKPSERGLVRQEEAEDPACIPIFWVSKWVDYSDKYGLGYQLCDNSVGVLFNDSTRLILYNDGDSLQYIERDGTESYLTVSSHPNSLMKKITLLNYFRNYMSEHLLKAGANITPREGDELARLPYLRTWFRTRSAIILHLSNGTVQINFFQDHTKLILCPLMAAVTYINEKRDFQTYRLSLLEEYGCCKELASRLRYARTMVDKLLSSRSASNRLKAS
UniProt P28740: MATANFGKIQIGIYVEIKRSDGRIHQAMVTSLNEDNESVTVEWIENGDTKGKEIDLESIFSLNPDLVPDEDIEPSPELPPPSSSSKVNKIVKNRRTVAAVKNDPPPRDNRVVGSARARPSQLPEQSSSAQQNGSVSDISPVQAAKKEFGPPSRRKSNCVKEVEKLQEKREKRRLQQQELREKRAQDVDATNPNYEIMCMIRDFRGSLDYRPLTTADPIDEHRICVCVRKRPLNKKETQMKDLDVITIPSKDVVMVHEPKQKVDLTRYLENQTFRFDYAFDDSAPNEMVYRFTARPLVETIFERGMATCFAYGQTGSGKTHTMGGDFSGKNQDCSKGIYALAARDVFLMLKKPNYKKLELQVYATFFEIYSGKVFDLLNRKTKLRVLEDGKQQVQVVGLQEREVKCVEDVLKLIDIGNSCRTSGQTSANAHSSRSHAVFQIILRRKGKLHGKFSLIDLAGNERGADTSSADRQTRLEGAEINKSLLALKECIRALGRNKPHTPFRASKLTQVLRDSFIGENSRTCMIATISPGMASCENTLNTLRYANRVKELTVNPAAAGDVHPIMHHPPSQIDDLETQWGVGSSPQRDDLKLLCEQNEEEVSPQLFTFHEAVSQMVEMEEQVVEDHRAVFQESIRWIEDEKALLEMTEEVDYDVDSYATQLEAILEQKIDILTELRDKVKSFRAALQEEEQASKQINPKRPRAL
UniProt Q8C0N1: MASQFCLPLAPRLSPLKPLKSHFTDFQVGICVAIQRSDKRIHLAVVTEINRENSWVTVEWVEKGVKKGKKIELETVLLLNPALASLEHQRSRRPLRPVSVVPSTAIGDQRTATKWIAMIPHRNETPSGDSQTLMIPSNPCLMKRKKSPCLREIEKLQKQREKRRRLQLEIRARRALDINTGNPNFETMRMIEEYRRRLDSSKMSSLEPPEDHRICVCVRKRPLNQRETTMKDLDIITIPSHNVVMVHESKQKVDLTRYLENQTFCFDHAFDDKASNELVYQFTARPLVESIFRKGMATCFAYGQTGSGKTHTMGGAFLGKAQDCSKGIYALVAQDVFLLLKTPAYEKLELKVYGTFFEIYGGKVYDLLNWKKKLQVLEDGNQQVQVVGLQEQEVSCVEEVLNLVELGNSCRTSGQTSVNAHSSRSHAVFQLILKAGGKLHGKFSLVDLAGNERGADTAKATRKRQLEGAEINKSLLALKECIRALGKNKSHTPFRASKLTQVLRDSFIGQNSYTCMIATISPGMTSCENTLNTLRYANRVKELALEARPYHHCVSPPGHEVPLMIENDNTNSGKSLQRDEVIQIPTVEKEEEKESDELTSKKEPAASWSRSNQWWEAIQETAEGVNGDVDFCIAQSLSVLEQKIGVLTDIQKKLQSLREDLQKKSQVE
UniProt Q80WE4: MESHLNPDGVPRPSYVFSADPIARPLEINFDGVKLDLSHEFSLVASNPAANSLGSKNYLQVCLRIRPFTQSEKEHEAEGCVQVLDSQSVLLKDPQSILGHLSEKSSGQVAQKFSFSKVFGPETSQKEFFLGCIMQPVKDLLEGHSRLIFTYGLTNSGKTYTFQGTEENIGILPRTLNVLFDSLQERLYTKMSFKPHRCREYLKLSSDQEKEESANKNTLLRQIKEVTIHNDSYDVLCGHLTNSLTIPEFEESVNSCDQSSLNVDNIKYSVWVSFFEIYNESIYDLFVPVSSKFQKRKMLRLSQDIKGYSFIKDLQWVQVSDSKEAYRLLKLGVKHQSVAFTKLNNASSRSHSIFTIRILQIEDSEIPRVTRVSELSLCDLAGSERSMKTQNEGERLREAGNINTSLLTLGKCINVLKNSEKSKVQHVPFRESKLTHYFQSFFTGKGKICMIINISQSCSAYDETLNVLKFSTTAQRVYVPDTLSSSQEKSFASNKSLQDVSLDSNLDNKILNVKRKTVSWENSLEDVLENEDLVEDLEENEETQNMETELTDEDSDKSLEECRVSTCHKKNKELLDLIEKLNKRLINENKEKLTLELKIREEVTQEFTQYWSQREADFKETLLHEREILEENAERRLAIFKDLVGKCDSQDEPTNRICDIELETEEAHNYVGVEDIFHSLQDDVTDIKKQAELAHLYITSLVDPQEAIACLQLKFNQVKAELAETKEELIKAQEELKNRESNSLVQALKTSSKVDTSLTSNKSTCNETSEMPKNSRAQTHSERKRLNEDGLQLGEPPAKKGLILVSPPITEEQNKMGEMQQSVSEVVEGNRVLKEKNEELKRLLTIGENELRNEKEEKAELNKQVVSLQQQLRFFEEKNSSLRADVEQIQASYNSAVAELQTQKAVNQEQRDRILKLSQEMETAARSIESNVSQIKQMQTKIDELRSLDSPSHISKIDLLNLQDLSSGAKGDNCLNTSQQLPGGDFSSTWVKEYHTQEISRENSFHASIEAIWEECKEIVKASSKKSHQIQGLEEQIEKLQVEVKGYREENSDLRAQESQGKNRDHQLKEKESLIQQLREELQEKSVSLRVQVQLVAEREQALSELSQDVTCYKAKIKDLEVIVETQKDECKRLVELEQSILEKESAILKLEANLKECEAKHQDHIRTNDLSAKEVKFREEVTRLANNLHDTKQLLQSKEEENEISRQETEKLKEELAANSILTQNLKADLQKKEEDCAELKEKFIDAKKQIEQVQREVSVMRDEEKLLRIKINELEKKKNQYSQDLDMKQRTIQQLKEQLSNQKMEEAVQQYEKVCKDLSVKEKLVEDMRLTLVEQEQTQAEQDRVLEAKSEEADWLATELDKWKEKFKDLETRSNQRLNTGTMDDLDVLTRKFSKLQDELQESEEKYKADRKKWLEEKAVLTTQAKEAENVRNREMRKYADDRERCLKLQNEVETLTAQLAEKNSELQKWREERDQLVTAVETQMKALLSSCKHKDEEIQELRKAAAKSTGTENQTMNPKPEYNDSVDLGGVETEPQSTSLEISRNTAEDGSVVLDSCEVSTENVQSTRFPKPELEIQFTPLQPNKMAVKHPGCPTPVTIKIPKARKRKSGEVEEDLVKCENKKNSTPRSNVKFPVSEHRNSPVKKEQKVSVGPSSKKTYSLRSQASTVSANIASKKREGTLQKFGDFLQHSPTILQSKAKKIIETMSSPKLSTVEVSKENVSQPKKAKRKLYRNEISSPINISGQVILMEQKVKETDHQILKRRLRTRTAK

T1: GST-tagged EML1 N-ter (EML1 N-terminal domain, amino acids 1-174) (UniProt O00423)
T1 sequence: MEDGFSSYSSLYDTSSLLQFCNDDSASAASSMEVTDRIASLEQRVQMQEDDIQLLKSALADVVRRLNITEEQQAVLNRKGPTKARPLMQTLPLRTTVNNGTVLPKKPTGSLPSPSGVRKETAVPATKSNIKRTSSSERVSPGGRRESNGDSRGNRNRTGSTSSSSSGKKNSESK


Each molecule was assayed against T1, GST-tagged EML1 N-ter (EML1 N-terminal domain, amino acids 1-174) (assay: affinity purification with mass spectrometry; purified GST-EML1 N-ter (4 μg) coupled to Glutathione-Agarose resin, incubated overnight with E13.5 mouse embryonic cortex extract; lysis buffer Tris HCl 50 mM, NaCl 150 mM, EDTA 1 mM pH 8, 1% NP-40; bound fractions by nano LC-MS/MS, label-free XIC quantification against GST control; two independent pull-downs; only the target purified).

Molecule | binding
KifC1 (kinesin-14) (protein, UniProt Q9QWT9 1-674) MDVQAQRPPLLEVKRNVELKAALVKSSSRVPLSASRLKRGPDQMEDALEPAKKRTRVMGAVTKVDTSRPRGPLLSTVSQTQGHTAAQKGPKKTGPRGCSAIGTVLRSQKPVPAAPAQKPGTSTAPVVVGKRAGKRPAWDLKGQLCDLNEELKRYREKTQTLELENRGLREQLREVQEQATTLGTERNTLEGELASVRSRAEQDQQRLETLSARVLELEECLGTRERLLQELQGERLQLQEERSTLSTQLEEQERRFQATEAALSSSQEEVVCLRQKTEAQVTLLAEQGDRLYGLEMERRRLHNQLQELKGNIRVFCRVRPVLEGESTPSPGFLVFPPGPAGPSDPPTGLSLSRSDDRRSTLTGAPAPTVRHDFSFDRVFPPGSKQEEVFEEIAMLVQSALDGYPVCIFAYGQTGSGKTFTMEGGPRGDPQLEGLIPRAMRHLFSVAQEMSGQGWTYSFVASYVEIYNETVRDLLATGPRKGQGGECEIRRASPGSEELTVTNARYVPVSCEKEVEALLHLAHQNRAVAHTAQNKRSSRSHSVFQLQISGEHAARGLQCGAPLNLVDLAGSERLDPGLHLGPGERDRLRETQAINSSLSTLGLVIMALSNKESHVPYRNSKLTYLLQNSLGGSAKMLMFVNISPLEENVSESLNSLRFASKVNQCVIGTAQANKK | binds
Kif22 (kinesin-10) (protein, UniProt Q3V300 1-660) MSLRAKTCPQRREMASATSGPGRCVSKGGLGRRPPLARVRVAVRLRPFMDGETEAKELPCVRAIDSCSLEVANWKKYQETLKYQFDAFYGEKSTQQEVYVGSVQPILRHLLEGQNASVLAYGPTGAGKTHTMLGSPEQPGVIPRALMDLLQLAREESAEGRPWDVSVAMSYLEIYQEKVLDLLDPASGDLVIREDCRGNILIPGLTQKPITSFSDFEQHFLPASRNRAVGATRLNQRSSRSHAVLLVKVDQRERLTPFRQREGKLYLIDLAGSEDNRRTGNQGIRLKESGAINTSLFVLGKVVDALNQGLPRIPYRDSKLTRLLQDSLGGSAHSILIANIAPERRFYQDTISALNFTARSKEVINRPFTNESLQPHALAPVKLSQKELLGPSEAKKAKGPEEESTGSPESTAAPASASQKLSLLQKLSNMDPAMLENLLSMERLLGSQGSQGTPLLNTPKRERMVLMKTVEEKNLEIERLKMKQKELEAKVLAQEAPDPREKENTPTILQPPASYSGTVAKPLKKAVVMPLQRIQKQRESSNQIQLLKKGPKRKLEPSPESEAVEKDEDYWEVQISPELLAHGRKKLLDLLNEGSARELRSLQRIGQKKAQLIVGWRELHGPFSEVEDLEQVEGISGKQVESFLKANLLSLAASQHSGPS | binds
Nde1-like (Ndel1) (protein, UniProt Q9ERR1 1-345) MDGEDIPDFSSLKEETAYWKELSLKYKQSFQEARDELVEFQEGSRELEAELEAQLVQAEQRNRDLQADNQRLKYEVEALKEKLEHQYAQSYKQVSVLEDDLSQTRAIKEQLHKYVRELEQANDDLERAKRATIVSLEDFEQRLNQAIERNAFLESELDEKESLLVSVQRLKDEARDLRQELAVRERQQEVTRKSAPSSPTLDCEKMDSAVQASLSLPATPVGKGTENSFPSPKAIPNGFGTSPLTPSARISALNIVGDLLRKVGALESKLAACRNFAKDQASRKSYVPGSVNCGVMNSNGPECPRSGRATFFHKGAVNGFDPAPPPPGLGSSRPSSAPGMLPLSV | binds
Kif18A (kinesin-8) (protein, UniProt Q91WD7 1-886) MSGTEEDLCHRMKVVVRVRPENTKEKAVQFCKVVHVVDKHILSFDPKQEEISFFHRKKTTNFDITKRQNKDLKFVFDAVFDETSTQMEVFEHTTKPILHSFLNGYNCTVFAYGATGSGKTHTMLGSAAEPGVMYLTMLDLFKCIDEIKEEKECSTAVSYLEVYNEQIRDLLTNSGPLAVREDSQKGVVVQGLTLHQPKSSEEILQLLDNGNKNRTQHPTDVNAVSSRSHAVFQIYLRQQDKTASINQNVRIAKMSLIDLAGSERASVSGAKGSRFVEGTNINKSLLALGNVINALANTKRRNQHIPYRNSKLTRLLKDSLGGNCQTIMIAAVSPSSLFYDDTYNTLKYANRAKEIKSSLKSNVLNLNSHISQYVKICNMQKAEILMLKEKLKAYEEQKALSDRNDCAKLVHSNPEDRETERFQEILNCLFQNREGIRQEYLKLEMLLKANALKSSYHQQCHKQIEMMCSEDKVEKATCKRDHRLEKLKTNSCFLEKKKEEVSKQFDENTNWLHRVENEMRLLGQNGDIPEALNKELHCHHLHLQNKELKTQMAHMTALACLQEQQHKQTEAVLNALLPVLRKQYWKLKETGLSNAAFDSDFKDIEHLVERKKVVAWADQTNEHSNRNDLPGISLLMTFPQLEPIQSISCCTSVSDPNVLKLTPQRRTRRKIIPSPLKVQHTQKSALSESTQLNDSFSKELQPIVYTPEDCKKAQDLFPSLTRTSSQSANVMNDNSQKALCRIESPLSRTECKQGLYSTSTLCDSIRGLKNKWPEQEPLASSKSSVHRIESSSFSTKDSMPESAGVPSYMAMTTAAKRKWKQMSSTSNASIKSDESCGFAKRIRRDNSSVKPMQENRLKVGYKRNTNKTNSNMLRKFRRNTSKENVQ | binds

The next lines start with the values.

binding | Molecule
binds | nuclear distribution E neurodevelopment protein 1 (Nde1) (protein, UniProt Q9CZA6 1-344) MEDSGKTFESEEEETNYWRDLAMTYKQRAENTQEELREFQEGSREYEAELEAQLQQIETRNRDLLSENNRLRMELESVKEKFEMQHSEGYRQISALEDDLAQTKAIKDQLQKYIRELEQANDDLERAKRATIMSLEDFEQRLNQAIERNAFLESELDEKENLLESVQRLKDEARDLRQELAVQQKQDKPRTPMPGSGQAKRTDMAVQATGSVPSTPVAHRGPSSGLNTPGMFRRGLDSSTSGTPLTPAARISALNIVGDLLRKVGALESKLASCRNFMYDQSPSRTSGPASGRGTKNRDGVDRRPGSTSVGDKGSGKRLEFGKPASEPASPALPSAQGVVKLLL
binds | Kif2C (kinesin-13) (protein, UniProt Q922S8 1-721) MESLHARLFPGLSINIQRSNGLIHPANISTVNVEKSCVSVEWIEGGTTKGKEIDIDDVAAINPELLQLLPLRPKDSLPLQENVTVPKQKRKSVNSKIPALKEGLRSRSTRMSTVSEVRIPAQENEMEVELPVPTNSRKQFAIPSHPRASCSTVTELPLLMVSEEAEEQAHSTRSTSSANPGNSVRRKSCIVKEMEKMKNKREEKRAQNSELRIKRAQEYDSSFPNWEFARMIKEFRVTMECSPLTVTDPIEEHRICVCVRKRPLNKQELAKKEIDVISVPSKCLLLVHEPKLKVDLTKYLENQAFCFDFAFDETASNEVVYRFTARPLVQTIFEGGKATCFAYGQTGSGKTHTMGGDLSGKSQNASKGIYAMASRDVFLLKNQPRYRNLNLEVYVTFFEIYNGKVFDLLNKKAKLRVLEDSRQQVQVVGLQEYLVTCADDVIKMINMGSACRTSGQTFANSNSSRSHACFQILLRTKGRLHGKFSLVDLAGNERGADTSSADRQTRMEGAEINKSLLALKECIRALGQNKAHTPFRESKLTQVLRDSFIGENSRTCMIAMISPGISSCEYTLNTLRYADRVKELSPHSGPSGEQPVQMETEVMEASSNGTSLTGNEEEELSSQMSSFNEAMTQIRELEERALEELREIIQQGPNWLELSEMTDQPDYDLETFVNKAESALTQQAKQAKHFSALREVIKALRLAMQLEEQASKQINSKKRHQ
binds | Clasp2 (protein, UniProt Q8BRT1 1-1286) MRRLICKRICDYKSFDDEESVDGNRPSSAASAFKVPAPKTPGNPVSSARKPGSAGGPKVGGPSKEGGAGAVDEDDFIKAFTDVPSVQIYSSRELEETLNKIREILSDDKHDWDQRANALKKIRSLLVAGAAQYDCFFQHLRLLDGALKLSAKDLRSQVVREACITVAHLSTVLGNKFDHGAEAIVPTLFNLVPNSAKVMATSGCAAIRFIIRHTHVPRLIPLITSNCTSKSVPVRRRSFEFLDLLLQEWQTHSLERHAAVLVETIKKGIHDADAEARVEARKTYMGLRNHFPGEAETLYNSLEPSYQKSLQTYLKSSGSVASLPQSDRSSSSSQESLNRPFSSKWSTANPSTVAGRVSVGGSKANPLPGSLQRSRSDIDVNAAAGAKAHHAAGQAVRSGRLGAGALNPGSYASLEDTSDKMDGTASDDGRVRAKLSTPLVAVGNAKTDSRGRSRTKMVSQSQPGSRSGSPGRVLTTTALSTVSSGAQRVLVNSASAQKRSKIPRSQGCSREASPSRLSVARSSRIPRPSVSQGCSREASRESSRDTSPVRSFQPLGPGYGISQSSRLSSSVSAMRVLNTGSDVEEAVADALLLGDIRTKKKPARRRYESYGMHSDDDANSDASSACSERSYSSRNGSIPTYMRQTEDVAEVLNRCASSNWSERKEGLLGLQNLLKNQRTLSRIELKRLCEIFTRMFADPHGKVFSMFLETLVDFIQVHKDDLQDWLFVLLTQLLKKMGADLLGSVQAKVQKALDITRESFPNDLQFNILMRFTVDQTQTPSLKVKVAILKYIETLAKQMDPRDFTNSSETRLAVSRVITWTTEPKSSDVRKAAQSVLISLFELNTPEFTMLLGALPKTFQDGATKLLHNHLRNTGNGTQSSMGSPLTRPTPRSPANWSSPLTSPTNTSQNTLSPSAFDYDTENMNSEDIYSSLRGVTEAIQNFSFRSQEDMSEPVRRDPKKEDGDTICSGPGMSDPRAGGDAADGSQPALDNKASLLHSMPLHSSPRSRDYNPYNYSDSISPFNKSALKEAMFDDDADQFPDDLSLDHSDLVAELLKELSNHNERIEERKIALYELMKLTQEESFSVWDEHFKTILLLLLETLGDKEPTIRALALKVLKEILRHQPARFKNYAELTVMKTLEAHKDPHKEVVRSAEEAASVLATSISPEQCIKVLCPIIQTADYPINLAAIKMQTKVIERVSKETLNMLLPEIMPGLIQGYDNSESSVRKACVFCLVAVHAVIGDELKPHLSQLTGSKMKLLNLYIKRAQTGSAGADPTADVSGQS

Target: T1, GST-tagged EML1 N-ter (EML1 N-terminal domain, amino acids 1-174)
Assay: as above
Remark: another data set of the same source

Molecule | binding
Clasp1 (from UniProt Q80TV8 1-1535) | binds
Eml1 (Echinoderm microtubule-associated protein like-1) (from UniProt Q05BC3 1-814) | binds
Tpx2 (targeting protein for Xklp2) (from UniProt A2APB8 1-745) | binds
dynein heavy chain 1 (Dync1h1) (from UniProt Q9JHU4 1-4644) | binds
polo kinase 1 (Plk1) (from UniProt Q07832 1-603) | binds

Other lines, results leading:

binding | Molecule
binds | Kif2A (kinesin-13) (from UniProt P28740 1-705)
binds | Kif2B (kinesin-13) (from UniProt Q8C0N1 1-668)
binds | Kif10 (Cenp-E) (from UniProt Q6RT24 1-2474)
binds | kinesin superfamily protein (Kif) 20b (from UniProt Q80WE4 1-1774)

These are yes or no findings as the source states them, for the method shown. In cells and extracts the contact can be indirect. A yes stands for co-enrichment or nearness to the bait. Other partners may have been found. Sequences can lack the tags named with a protein.
